The other results are listed elsewhere or left out.
What follows are targets tested with C1CN(CCC1(CC2=CC=C(C=C2)Cl)N)C3=NC=NC4=C3C=CN4 (assay: log2 fold change, soluble protein after heating vs DMSO (PISA); higher = thermal stabilisation; K562 lysate, 10 uM; active = over 0.2 and 3.5 SD of the protein, either way, in both replicates (recomputed)).
In short: (§1)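 To prepare the extract, K562 pellets were dounce-homogenised in PBS pH 7.4 with 1 mM MgCl2, giving crude material at 1 mg/mL protein. This was treated with 10 μM compound for 30 min, then heated in aliquots for 3 min over 48°C-58°C before pooling and addition of NP-40 to 0.5% at 4°C. Centrifugation at 21,000xg for 90 min left soluble protein in the supernatant, which TMTpro 16plex LC-MS/MS quantified with equalised channel sums. Results are log-two fold changes in thermal stability compared with solvent controls, from duplicates.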

Amino acid sequences for entries named in this document (tags omitted). A change or cut given only in a name is not applied to a line headed by its entry.
UniProt P56589: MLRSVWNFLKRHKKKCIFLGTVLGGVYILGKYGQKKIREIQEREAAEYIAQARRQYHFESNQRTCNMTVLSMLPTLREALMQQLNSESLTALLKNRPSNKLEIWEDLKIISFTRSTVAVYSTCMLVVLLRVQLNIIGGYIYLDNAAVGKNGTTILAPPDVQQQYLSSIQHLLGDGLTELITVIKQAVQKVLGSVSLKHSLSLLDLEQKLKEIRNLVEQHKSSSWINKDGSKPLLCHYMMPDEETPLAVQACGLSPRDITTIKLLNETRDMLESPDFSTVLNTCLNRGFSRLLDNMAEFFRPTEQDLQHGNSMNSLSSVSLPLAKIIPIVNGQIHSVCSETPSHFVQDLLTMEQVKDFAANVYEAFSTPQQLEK
UniProt Q9UKK3: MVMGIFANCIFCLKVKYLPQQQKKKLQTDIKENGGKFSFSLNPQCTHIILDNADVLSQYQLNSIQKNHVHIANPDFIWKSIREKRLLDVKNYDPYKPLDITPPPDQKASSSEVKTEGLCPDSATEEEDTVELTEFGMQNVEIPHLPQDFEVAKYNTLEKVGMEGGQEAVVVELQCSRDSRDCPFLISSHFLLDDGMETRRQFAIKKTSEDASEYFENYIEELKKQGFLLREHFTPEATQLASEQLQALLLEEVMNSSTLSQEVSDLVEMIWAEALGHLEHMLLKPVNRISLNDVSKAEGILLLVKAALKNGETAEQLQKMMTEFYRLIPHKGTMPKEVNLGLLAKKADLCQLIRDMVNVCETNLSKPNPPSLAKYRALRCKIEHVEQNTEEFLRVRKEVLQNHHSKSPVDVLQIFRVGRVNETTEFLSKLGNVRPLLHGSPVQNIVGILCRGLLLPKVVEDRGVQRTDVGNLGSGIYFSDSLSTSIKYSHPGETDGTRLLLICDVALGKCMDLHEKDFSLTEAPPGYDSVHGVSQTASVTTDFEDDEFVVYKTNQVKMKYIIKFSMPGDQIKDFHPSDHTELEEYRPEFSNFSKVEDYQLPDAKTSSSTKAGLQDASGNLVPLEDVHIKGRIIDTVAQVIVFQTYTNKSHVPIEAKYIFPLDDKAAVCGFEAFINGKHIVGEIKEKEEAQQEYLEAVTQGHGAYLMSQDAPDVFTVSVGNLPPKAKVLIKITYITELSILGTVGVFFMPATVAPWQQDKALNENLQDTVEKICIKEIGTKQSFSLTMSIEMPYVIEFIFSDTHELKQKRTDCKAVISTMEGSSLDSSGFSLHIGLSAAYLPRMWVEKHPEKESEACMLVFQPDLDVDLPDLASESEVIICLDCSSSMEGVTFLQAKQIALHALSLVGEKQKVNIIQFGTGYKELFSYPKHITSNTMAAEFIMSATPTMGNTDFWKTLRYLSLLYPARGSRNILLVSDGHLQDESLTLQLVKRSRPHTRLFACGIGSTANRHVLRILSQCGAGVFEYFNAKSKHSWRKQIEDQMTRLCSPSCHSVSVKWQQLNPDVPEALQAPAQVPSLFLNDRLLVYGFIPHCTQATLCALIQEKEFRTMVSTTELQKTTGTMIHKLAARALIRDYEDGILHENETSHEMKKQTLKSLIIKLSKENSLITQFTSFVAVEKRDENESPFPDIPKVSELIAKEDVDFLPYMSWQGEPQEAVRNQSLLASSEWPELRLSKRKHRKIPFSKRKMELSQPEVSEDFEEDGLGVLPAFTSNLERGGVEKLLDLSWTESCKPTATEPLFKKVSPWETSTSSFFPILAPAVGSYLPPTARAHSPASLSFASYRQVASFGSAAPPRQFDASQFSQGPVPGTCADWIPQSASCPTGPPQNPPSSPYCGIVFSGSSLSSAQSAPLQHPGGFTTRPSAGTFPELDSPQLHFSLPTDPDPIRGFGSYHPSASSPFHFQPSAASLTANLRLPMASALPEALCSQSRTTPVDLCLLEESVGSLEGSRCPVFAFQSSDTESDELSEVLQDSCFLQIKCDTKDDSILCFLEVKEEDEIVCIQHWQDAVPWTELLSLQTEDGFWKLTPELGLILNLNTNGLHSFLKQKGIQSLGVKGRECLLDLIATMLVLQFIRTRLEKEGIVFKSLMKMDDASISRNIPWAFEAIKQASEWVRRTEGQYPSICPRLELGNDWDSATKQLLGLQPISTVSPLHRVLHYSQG
UniProt Q9NWS1: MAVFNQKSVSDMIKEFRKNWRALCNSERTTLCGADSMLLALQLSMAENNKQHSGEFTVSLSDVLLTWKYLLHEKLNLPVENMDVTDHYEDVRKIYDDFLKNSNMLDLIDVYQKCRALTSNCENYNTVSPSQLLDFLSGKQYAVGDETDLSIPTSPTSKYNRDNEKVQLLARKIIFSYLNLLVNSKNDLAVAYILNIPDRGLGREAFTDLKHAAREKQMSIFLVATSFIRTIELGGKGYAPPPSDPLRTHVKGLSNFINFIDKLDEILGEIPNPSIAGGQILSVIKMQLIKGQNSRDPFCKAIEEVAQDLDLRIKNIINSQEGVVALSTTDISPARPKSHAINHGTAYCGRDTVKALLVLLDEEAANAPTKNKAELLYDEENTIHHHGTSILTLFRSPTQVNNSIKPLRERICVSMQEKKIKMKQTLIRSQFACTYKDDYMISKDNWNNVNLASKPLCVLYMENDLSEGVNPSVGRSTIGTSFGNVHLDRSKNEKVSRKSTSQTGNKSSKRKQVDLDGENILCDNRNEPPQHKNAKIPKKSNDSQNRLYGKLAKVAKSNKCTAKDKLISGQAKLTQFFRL
UniProt Q96MG8: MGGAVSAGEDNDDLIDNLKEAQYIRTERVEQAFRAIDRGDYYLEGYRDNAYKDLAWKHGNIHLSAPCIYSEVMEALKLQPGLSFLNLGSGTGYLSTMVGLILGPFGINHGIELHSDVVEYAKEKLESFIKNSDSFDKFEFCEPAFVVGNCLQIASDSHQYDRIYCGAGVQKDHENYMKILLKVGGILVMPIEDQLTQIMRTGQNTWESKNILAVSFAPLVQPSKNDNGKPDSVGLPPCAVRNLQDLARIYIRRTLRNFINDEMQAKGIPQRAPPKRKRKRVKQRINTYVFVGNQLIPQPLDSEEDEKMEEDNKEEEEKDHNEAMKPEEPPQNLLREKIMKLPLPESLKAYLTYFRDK
UniProt O43933: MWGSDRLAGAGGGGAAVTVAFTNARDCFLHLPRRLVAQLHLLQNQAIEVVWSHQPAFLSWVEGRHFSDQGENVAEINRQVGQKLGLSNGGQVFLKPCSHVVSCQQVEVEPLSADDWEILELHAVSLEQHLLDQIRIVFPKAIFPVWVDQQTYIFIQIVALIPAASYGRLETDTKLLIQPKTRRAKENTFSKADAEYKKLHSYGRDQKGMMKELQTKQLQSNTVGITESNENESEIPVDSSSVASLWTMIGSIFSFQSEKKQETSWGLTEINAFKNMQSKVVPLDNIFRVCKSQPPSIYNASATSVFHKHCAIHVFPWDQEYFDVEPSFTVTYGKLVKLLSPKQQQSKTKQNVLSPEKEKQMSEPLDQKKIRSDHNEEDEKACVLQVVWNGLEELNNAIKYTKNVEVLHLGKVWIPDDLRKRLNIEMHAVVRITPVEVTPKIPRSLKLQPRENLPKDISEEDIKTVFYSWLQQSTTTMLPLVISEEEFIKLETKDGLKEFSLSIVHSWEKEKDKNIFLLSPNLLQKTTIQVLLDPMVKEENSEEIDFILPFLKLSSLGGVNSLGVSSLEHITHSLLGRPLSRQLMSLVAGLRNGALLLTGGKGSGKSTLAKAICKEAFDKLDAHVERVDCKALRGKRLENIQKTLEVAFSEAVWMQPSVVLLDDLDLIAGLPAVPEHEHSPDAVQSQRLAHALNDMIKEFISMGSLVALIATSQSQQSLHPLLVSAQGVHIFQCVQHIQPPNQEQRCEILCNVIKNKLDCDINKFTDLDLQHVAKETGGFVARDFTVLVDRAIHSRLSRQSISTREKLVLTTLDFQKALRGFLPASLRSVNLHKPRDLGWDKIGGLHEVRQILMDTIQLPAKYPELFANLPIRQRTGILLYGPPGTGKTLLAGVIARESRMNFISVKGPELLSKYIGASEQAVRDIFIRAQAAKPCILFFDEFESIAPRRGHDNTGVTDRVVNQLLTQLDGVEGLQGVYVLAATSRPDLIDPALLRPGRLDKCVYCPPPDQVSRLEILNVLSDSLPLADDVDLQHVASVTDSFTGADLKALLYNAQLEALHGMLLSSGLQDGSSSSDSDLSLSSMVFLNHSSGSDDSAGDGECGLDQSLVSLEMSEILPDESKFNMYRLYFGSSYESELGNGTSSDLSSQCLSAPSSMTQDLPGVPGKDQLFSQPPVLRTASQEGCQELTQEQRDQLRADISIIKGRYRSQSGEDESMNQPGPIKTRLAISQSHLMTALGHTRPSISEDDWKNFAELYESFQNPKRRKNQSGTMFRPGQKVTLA
UniProt Q15154: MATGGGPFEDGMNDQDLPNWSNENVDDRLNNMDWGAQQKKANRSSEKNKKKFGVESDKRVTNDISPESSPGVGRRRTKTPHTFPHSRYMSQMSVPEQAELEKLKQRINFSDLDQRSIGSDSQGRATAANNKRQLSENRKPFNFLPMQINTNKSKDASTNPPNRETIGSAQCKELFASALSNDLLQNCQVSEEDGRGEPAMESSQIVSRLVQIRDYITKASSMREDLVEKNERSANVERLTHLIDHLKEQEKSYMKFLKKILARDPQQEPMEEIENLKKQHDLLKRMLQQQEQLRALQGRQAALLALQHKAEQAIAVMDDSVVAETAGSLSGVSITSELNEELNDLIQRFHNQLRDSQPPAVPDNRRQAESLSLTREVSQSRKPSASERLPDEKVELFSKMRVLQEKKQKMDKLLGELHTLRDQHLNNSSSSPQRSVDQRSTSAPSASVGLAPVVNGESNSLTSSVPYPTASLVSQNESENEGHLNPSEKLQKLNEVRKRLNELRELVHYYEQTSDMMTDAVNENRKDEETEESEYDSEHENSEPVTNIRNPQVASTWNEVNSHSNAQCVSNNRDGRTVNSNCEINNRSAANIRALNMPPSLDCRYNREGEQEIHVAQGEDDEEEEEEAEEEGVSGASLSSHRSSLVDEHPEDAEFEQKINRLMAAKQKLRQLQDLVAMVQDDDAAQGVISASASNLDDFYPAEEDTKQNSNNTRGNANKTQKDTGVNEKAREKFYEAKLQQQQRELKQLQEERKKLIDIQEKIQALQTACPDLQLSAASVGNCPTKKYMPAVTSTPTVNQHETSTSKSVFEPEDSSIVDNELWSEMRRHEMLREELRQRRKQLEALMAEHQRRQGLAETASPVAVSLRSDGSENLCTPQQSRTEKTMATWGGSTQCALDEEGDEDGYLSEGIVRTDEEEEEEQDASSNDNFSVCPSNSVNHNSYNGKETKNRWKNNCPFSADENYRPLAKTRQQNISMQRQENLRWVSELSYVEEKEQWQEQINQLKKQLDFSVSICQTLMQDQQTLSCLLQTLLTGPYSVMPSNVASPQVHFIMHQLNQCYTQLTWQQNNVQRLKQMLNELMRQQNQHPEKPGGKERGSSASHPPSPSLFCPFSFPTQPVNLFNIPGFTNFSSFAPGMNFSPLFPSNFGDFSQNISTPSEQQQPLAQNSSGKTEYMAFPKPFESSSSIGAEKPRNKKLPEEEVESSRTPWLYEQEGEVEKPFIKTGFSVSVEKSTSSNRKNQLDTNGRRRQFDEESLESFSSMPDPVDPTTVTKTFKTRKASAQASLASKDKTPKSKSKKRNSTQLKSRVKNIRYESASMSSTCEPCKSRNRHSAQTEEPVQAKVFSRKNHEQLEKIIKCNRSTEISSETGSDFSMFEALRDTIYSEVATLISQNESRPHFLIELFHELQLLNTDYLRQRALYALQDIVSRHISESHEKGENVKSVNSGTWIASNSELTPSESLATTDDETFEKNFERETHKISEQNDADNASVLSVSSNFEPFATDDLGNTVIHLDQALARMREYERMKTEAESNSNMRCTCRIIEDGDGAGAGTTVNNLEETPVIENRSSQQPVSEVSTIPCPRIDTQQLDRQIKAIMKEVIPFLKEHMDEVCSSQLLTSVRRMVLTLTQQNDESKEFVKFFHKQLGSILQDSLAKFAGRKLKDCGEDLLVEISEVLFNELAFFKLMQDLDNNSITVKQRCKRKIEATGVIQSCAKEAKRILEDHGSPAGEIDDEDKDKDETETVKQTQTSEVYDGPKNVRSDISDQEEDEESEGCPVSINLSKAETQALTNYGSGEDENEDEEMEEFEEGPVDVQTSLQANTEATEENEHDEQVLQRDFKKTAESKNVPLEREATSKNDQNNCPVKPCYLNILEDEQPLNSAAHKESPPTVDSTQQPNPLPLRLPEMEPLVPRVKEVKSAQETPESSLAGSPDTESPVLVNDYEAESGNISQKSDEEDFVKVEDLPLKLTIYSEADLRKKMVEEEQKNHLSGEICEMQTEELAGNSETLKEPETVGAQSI
UniProt O43924: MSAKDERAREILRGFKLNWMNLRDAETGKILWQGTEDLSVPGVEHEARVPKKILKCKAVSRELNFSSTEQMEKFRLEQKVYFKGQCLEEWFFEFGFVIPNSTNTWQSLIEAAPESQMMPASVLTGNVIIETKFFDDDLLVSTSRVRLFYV

log2 fold change, inactive:
PEX7 (UniProt O00628) -0.017
PFN3 (UniProt P60673) 0.155
PEX3 (UniProt P56589) 0.001
PEX5 (UniProt J3KPV0) -0.016
PCGF1 (UniProt Q9BSM1) 0.099
PFN1 (UniProt I3L3D5) 0.03
PARP4 (UniProt Q9UKK3) 0.058
PARPBP (UniProt Q9NWS1) 0.08
PGAP2 isoform 2 (UniProt Q9UHJ9) -0.066
PECR (UniProt Q9BY49) 0.056
PDP1 isoform 2 (UniProt Q9P0J1) 0.005
PCMTD1 (UniProt Q96MG8) -0.082
PEX1 (UniProt O43933) 0.104
PCM1 isoform 5 (UniProt Q15154) 0.018
PBRM1 (UniProt Q86U86) -0.05
PCNX3 (UniProt Q9H6A9) 0.07
PDE6D (UniProt O43924) 0
PEX6 (UniProt Q13608) 0.033
PCMTD2 (UniProt Q9NV79) 0.32
PARP12 (UniProt Q9H0J9) 0.076
PDCD7 (UniProt Q8N8D1) 0.208
PDE4DIP (UniProt E9PS60) 0.063

What follows are targets tested with C1COCCN1CCN2C3=CC=CC=C3N=C2NC(=O)C4=CC(=CC=C4)[N+](=O)[O-] [IRAK-1-4 Inhibitor I] in the same assay as above.
In short: as §1

log2 fold change, inactive:
PCGF6 (UniProt Q9BYE7) 0.017
PEX7 (UniProt O00628) 0.036
PDIK1L (UniProt Q8N165) 0.189
PEX5 (UniProt J3KPV0) 0.001
PFN1 (UniProt I3L3D5) 0.005
PDP1 isoform 2 (UniProt Q9P0J1) 0.171
PCBP2 (UniProt F8VRH0) 0.11
PEX1 (UniProt O43933) -0.01
PBRM1 (UniProt Q86U86) -0.094
PDE6D (UniProt O43924) 0.064
PDE3B (UniProt Q13370) 0.005
PDCD6 isoform 2 (UniProt O75340) 0.015
PARP12 (UniProt Q9H0J9) 0.025

From the supplement of paper PMC10849652
